According to patent US20180282402A1:
These are yes or no findings as the source states them, for the method shown. Some binding calls cover weakened binding; strength is not graded here.

Chains of the proteins cited; added tags and fusions are not shown. Lines headed by an entry give the natural chain unless they say otherwise; changes in a name come on top. A line that says so, or that is headed by a name, gives the form on record, which may keep a tag or linker. Residues count along the entry.
UniProt O60462, residues 23-864: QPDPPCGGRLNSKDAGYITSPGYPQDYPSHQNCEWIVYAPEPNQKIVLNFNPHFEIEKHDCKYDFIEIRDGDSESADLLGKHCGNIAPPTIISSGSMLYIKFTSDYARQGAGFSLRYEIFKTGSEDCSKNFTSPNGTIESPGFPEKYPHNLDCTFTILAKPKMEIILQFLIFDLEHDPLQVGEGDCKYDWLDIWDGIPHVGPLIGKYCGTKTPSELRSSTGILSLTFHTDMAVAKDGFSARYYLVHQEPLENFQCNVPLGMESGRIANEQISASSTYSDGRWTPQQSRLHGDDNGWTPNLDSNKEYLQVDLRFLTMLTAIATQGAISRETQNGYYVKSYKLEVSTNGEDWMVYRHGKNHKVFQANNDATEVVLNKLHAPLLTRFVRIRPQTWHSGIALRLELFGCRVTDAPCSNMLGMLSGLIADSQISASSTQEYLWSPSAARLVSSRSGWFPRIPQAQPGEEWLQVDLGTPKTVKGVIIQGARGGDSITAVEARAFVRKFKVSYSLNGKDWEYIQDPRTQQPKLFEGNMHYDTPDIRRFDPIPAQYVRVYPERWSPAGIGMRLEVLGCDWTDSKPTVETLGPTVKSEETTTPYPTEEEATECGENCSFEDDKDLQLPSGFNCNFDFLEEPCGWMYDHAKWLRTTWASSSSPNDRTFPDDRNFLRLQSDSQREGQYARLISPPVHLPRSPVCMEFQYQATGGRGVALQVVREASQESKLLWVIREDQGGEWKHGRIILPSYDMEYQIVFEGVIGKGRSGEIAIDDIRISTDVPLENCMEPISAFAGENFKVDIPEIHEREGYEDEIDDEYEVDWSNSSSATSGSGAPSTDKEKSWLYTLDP
VEGF-A165 (P15692, form named): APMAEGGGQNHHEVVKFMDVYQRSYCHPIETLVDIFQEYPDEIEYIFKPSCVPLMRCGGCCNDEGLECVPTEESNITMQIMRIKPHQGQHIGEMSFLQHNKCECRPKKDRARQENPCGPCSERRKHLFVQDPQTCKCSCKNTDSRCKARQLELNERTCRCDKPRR
UniProt P49767, residues 103-227: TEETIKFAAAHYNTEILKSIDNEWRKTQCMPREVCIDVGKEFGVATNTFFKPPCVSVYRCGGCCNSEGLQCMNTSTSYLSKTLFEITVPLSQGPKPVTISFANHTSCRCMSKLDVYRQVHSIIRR

Target: NRP2-Fc (R&D Systems #2215-N2) (human) (UniProt O60462)
Experiment: SPR; column Binding to NRP2 observed by SPR

## VEGF-A165 (from UniProt P15692 27-191) (ligand)
  binding: binds

## VEGF-C (from UniProt P49767 103-227) (ligand)
  binding: binds
